The results in this text go back to ChEMBL document CHEMBL5046322, “Discovery of SHR2415, a Novel Pyrrole-Fused Urea Scaffold ERK1/2 Inhibitor” (ACS Med Chem Lett, 2022).

Sequences of proteins named here, by UniProt entry; tags and fusion partners are left off. A change or cut given only in a name is not applied to a line headed by its entry.
UniProt P11712, whole entry: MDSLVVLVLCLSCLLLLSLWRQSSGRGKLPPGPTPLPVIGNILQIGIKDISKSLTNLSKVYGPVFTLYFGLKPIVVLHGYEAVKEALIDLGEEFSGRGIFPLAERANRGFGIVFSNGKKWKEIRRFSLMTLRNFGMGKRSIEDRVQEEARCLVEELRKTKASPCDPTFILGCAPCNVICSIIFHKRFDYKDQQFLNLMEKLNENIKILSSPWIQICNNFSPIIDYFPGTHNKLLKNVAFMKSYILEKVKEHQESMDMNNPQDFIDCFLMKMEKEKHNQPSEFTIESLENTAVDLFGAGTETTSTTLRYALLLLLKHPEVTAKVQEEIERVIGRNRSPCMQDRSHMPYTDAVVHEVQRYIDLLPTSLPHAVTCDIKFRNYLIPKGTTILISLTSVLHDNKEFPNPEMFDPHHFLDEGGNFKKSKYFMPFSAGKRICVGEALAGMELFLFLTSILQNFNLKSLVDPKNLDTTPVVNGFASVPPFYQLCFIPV
UniProt Q12809: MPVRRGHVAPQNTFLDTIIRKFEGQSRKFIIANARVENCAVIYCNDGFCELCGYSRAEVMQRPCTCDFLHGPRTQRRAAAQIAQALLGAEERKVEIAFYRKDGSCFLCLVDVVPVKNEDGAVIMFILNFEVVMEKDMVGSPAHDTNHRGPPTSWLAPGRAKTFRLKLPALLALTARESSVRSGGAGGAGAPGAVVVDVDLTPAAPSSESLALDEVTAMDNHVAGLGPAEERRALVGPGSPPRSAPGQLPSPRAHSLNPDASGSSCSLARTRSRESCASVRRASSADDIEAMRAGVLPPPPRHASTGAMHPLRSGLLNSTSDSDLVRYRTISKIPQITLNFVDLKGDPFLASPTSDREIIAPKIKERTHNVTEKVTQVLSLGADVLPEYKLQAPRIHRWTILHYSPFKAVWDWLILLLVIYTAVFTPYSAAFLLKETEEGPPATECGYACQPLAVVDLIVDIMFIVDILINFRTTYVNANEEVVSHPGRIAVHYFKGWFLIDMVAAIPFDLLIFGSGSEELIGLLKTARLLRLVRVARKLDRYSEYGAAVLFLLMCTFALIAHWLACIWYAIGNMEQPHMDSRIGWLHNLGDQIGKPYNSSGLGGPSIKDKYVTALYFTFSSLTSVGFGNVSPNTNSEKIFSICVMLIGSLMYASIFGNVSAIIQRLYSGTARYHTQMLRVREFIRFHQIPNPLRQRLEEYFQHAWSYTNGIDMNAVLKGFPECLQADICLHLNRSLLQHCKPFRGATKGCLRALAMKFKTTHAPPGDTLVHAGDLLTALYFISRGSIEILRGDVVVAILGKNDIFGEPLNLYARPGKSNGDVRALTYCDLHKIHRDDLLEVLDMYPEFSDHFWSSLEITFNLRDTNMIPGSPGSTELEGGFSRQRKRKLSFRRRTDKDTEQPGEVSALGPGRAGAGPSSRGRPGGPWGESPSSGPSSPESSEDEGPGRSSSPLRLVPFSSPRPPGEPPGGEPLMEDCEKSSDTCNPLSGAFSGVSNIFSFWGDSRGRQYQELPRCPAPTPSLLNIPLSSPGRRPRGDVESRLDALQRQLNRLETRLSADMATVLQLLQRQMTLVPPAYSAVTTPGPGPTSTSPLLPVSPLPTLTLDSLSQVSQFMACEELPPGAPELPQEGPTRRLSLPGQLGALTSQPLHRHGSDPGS

The target in one test is Cytochrome P450 2C9 (Homo sapiens, UniProt P11712). The experiment in a line: Inhibition of CYP2C9 in human liver microsomes. Background: Liver microsomes are a subcellular fraction often used to study metabolism.
For test [1], the target named is Voltage-gated inwardly rectifying potassium channel KCNH2 (Homo sapiens, UniProt Q12809).

`Cc1cnc(Nc2ccnn2C)nc1-c1cc2n(c1)C(=O)N([C@H](CO)c1cccc(Cl)c1)C2`: the IC50 (commonly the concentration that inhibits the measured activity by half) at Cytochrome P450 2C9 stood at 790 nM; in test [1], 14 nM.
